Values of other authors, collected in US7300762B2, “Fluorescent proteins and methods of using same” (GE Healthcare UK Limited, priority 2001, dated 2007).
At least one structure is not confirmed: it was looked up by name or label, or the drawing left a doubt.

Details: fluorescein reference standard (Molecular Probes)

O=C1OC2(c3ccc(O)cc3Oc3cc(O)ccc32)c2ccccc21 [fluorescein]
QY of reference standard: 0.85
